The values that follow come from US6525022B1, “Receptor specific atrial natriuretic peptides” (Genentech, Inc., priority 1993, dated 2003).

No constants are given. Whether binding was seen depends on the method and setting. Some results given as binding are weak or reduced against the parent protein; the word gives no strength.

This experiment has as its target T1, human natriuretic peptide receptor-A (human, UniProt P16066 33-1061).
T1 construct: whole, on cells; also called hNPR-A; human NPR-A
T1 sequence (looked up): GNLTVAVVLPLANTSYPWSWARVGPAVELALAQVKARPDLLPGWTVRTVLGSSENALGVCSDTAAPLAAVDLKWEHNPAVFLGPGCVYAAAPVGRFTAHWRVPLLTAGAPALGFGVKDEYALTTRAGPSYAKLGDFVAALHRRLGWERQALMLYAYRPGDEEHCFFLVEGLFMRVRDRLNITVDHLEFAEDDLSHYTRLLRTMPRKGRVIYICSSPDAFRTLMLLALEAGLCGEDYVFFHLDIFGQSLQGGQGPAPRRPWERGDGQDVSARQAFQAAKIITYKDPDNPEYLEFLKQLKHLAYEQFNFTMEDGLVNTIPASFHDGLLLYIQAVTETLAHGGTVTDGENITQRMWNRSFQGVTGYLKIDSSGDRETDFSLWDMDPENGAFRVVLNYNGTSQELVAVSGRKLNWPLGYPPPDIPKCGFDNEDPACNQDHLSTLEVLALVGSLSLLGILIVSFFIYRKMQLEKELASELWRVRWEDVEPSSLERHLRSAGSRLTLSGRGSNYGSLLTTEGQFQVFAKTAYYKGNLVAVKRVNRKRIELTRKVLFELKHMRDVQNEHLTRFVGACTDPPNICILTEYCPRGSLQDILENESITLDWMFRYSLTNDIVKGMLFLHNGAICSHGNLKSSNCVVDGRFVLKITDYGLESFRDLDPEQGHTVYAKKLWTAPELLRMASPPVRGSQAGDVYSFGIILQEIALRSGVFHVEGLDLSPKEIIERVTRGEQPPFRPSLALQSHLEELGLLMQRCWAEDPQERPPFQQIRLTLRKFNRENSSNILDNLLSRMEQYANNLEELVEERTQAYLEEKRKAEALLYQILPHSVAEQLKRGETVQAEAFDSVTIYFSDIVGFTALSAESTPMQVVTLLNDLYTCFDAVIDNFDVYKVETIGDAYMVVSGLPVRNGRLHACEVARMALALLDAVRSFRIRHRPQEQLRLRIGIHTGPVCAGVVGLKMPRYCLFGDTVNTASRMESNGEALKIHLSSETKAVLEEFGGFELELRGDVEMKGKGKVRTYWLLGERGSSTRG
Briefly: analysis of variants in receptor binding.

Regarding SLRRSSCFGGRMDRIRAQSGLGCNSFRY [hANF(1-28) G16R], the binding entry is listed as “binds”.
